# Taken from: PubChem BioAssay AID686937 (Drosophila RNAi Screening Center, 2013)
# Aim: 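Genes in the fly needed for secretion of protein constitutively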 (primary screen)
# Cells: Drosophila S2 cells expressing secreted horseradish peroxidase
# Reagents: long dsRNA against Drosophila genes
# Time to read-out: about 5.5 days (5 days dsRNA, then 12 h reporter induction)
# Conditions: reporter expression induced after 5 days of dsRNA, read 12 h later; inducer not stated
# Measurement: 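After 5 days of dsRNA and 12 h of reporter induction, medium peroxidase read by chemiluminescence and scored as per-plate z-score; higher values mean more reporter released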
# Direction: z-score: higher = more reporter secreted into medium
# The deposit covers about 23,000 reagents; shown is a random part of those that have a named target and a result. 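Reduced-secretion tags in replicate 1 do not always agree with the z-scores; no criterion for assigning the tags was given.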 The numbers tell different reagents against one gene apart. Names joined by + are all predicted targets of the reagent. Not all columns of the deposit are shown. No sequences are given here. Not given: the amount of reagent.
gene knocked down,dsRNA no.,"z-score, replicate 1"
CG3604,1,-0.25
Cht7 + tRNA:Cys-GCA-1-4 + tRNA:Lys-CTT-1-13,1,0.68
Obp50a,1,-0.07
rept,1,-0.78
CG8526,1,0.32
halo,1,0.15
Pez,1,0.39
MFS12,1,0.46
CG11584,1,0.5
Rdl,1,0.34
Rdl,2,0.47
CG6149,1,0.26
Cht11,1,0.15
meru,1,0.2
meru,2,-1.08
meru,3,0.22
GAPcenA,1,0.22
CG18746,1,0.35
CG5404,1,0.23
beta3GalTII,1,0.4
eIF2Bepsilon,1,-0.23
CG30471,1,0.42
Ance-4,1,0.21
CG5348,1,0.45
CG1428,1,0.14
Rab8,1,0.56
Cp7Fb,1,0.3
CG31178,1,0.23
mdy,1,0.28
mdy,2,0.24
Gar1,1,-0.42
CG34241,1,0.51
CG6592,1,0.03
CG3764,1,0.22
CG3355,1,0.31
l(1)10Bb,1,-2.08
CG32313,1,0.58
nAChRalpha5,1,0.64
nAChRalpha5,2,0.37
nAChRalpha5,3,0.87
nAChRalpha5,4,-0.78
CG13138,1,-0.14
Ald2,1,-2.79
Ald2,2,-0.97
TwdlO,1,0.41
Cpr92F,1,0.4
wfs1,1,0.31
CG5262,1,0.35
gdrd,1,-0.14
CG9877,1,0.01

Laid out differently: 8 of the entries above
gene knocked down | dsRNA no. | z-score, replicate 1
Obp50a | 1 | -0.07
rept | 1 | -0.78
CG8526 | 1 | 0.32
halo | 1 | 0.15
Pez | 1 | 0.39
MFS12 | 1 | 0.46
CG11584 | 1 | 0.5
Rdl | 1 | 0.34

Additional reagents follow:
gene knocked down,dsRNA no.,"z-score, replicate 1"
meigo,1,-0.87
GstE12,1,0.03
Sodq,1,0.19
Dic61B,1,0
Rbpn-5,1,0.54
CG17834,1,-0.85
CG3386,1,0.39
Cul5,1,0.21
CG1640,1,0.12
Hex-t2,1,0.67
Trf4-1,1,0.39
CG33704,1,0.06
HUWE1,1,0.54
Ktch,1,0.09
yellow-h,1,0.36
CG11899,1,0.38
CG16854,1,0.22
CG42264,1,0.25
CG42264,2,0.39
CG42383,1,-0.41
mRpL13,1,0.49
Cpr64Ad,1,0.37
CG7443,1,0.51
CG32106,1,0.41
CG16956,1,0.39
CG5554,1,0.24
CG14826,1,0.41
CG9588,1,0.41
ppk17,1,0.41
CG1636,1,-6.54
CG3592,1,0.32
CG13359,1,0.24
